US20080287384A1, “Methods of Identifying Agents Having Antiangiogenic Activity” (priority 2005, published 2008)
At least one compound was matched to its structure with a doubt left.

What was measured:
[1] = system: CREB, a substrate of PKA; assay: Phospho-CREB western analysis; settings: HMVEC lysates; forskolin given with IBMX per FIG. 5B legend
[2] = system: HMVECs; assay: Cell morphology / actin stress fiber staining; type: cell-based, human; settings: forskolin plus phosphodiesterase inhibitor (IBMX)

With `C=C[C@@]1(C)CC(=O)[C@]2(O)[C@@]3(C)[C@@H](O)CCC(C)(C)[C@@H]3[C@H](O)[C@H](OC(C)=O)[C@@]2(C)O1` [forskolin, Forskolin] the CREB phosphorylation [1] was “robustly stimulated” and the cell morphology [2] was “flattened”.
